# Results taken from the supplement of paper PMC8728848.
# This is one part of the list.
# B1: Erv41-EDTA (Saccharomyces cerevisiae), Q04651 (protein)
# chain: MKFLVNVALVFMVVYISYIYAAAPEHHHHHHDYDIPTTENLYFQGAMGYIDQQYVVDSQVRDTVQINMDIYVNTKCDWLQINVRDQTMDRKLVLEELQLEEMPFFIPYDTKVNDINEIITPELDEILGEAIPAEFREKLDTRSFFDESDPNKAHLPEFNGCHVFGSIPVNRVSGELQITAKSLGYVASRKAPLEELKFNHVINEFSFGDFYPYIDNPLDNTAQFNQDEPLTTYVYYTSVVPTLFKKLGAEVDTNQYSVNDYRYLYKDVAAKGDKMPGIFFKYNFEPLSIVVSDVRL
# Tests used:
# Assay in all cases: glycan array binding signal (z-score within array); higher = stronger binding
# Settings in all cases: glycan notation: IUPAC condensed, linker removed
# [1] = target: Gal(b1-4)GlcNAc(b1-6)Gal(b1-4)GlcNAc
# How it was run: (§1)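 From the Consortium for Functional Glycomics database, 3228 arrays were curated, keeping only those whose protein sequence was available. Binding is given as a within-array Z-score averaged across arrays sharing a protein sequence and across linkers. Negative Z-scores can be read as non-binding.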
# [2] = target: Gal(b1-4)GlcNAc(b1-6)GalNAc
# How it was run: as §1
# [3] = target: Gal(b1-4)GlcNAc(b1-6)[Gal(b1-3)]GalNAc
# How it was run: as §1
# [4] = target: Gal(b1-4)GlcNAc(b1-6)[Gal(b1-4)GlcNAc(b1-3)]GalNAc
# How it was run: as §1
# Gal(b1-4)GlcNAc6P = target: Gal(b1-4)GlcNAc6P
# How it was run: as §1
# Gal(b1-6)Gal = target: Gal(b1-6)Gal
# How it was run: as §1
# Gal3S(b1-3)GalNAc = target: Gal3S(b1-3)GalNAc
# How it was run: as §1
# Gal3S(b1-3)GlcNAc = target: Gal3S(b1-3)GlcNAc
# How it was run: as §1
# [5] = target: Gal3S(b1-3)[Fuc(a1-4)]GlcNAc
# How it was run: as §1
# Gal3S(b1-4)Glc = target: Gal3S(b1-4)Glc
# How it was run: as §1
# Gal3S(b1-4)Glc6S = target: Gal3S(b1-4)Glc6S
# How it was run: as §1
# Gal3S(b1-4)GlcNAc = target: Gal3S(b1-4)GlcNAc
# How it was run: as §1
# [6] = target: Gal3S(b1-4)[Fuc(a1-3)]Glc6S
# How it was run: as §1
# [7] = target: Gal3S(b1-4)[Fuc(a1-3)]GlcNAc
# How it was run: as §1
# [8] = target: Gal3S(b1-4)[Fuc(a1-3)]GlcNAc6S
# How it was run: as §1
# Gal3S4S(b1-4)GlcNAc = target: Gal3S4S(b1-4)GlcNAc
# How it was run: as §1
# Gal3S6S(b1-4)GlcNAc = target: Gal3S6S(b1-4)GlcNAc
# How it was run: as §1
# Gal3S6S(b1-4)GlcNAc6S = target: Gal3S6S(b1-4)GlcNAc6S
# How it was run: as §1
# Gal4S(b1-4)GlcNAc = target: Gal4S(b1-4)GlcNAc
# How it was run: as §1
# Gal4S6S(b1-4)GlcNAc = target: Gal4S6S(b1-4)GlcNAc
# How it was run: as §1
# Gal6P(b1-4)GlcNAc = target: Gal6P(b1-4)GlcNAc
# How it was run: as §1
# Gal6S(b1-3)GlcNAc = target: Gal6S(b1-3)GlcNAc
# How it was run: as §1
# Gal6S(b1-3)GlcNAc6S = target: Gal6S(b1-3)GlcNAc6S
# How it was run: as §1
# Gal6S(b1-4)Glc = target: Gal6S(b1-4)Glc
# How it was run: as §1
# Gal6S(b1-4)Glc6S = target: Gal6S(b1-4)Glc6S
# How it was run: as §1
# Gal6S(b1-4)GlcNAc = target: Gal6S(b1-4)GlcNAc
# How it was run: as §1
# Gal6S(b1-4)GlcNAc6S = target: Gal6S(b1-4)GlcNAc6S
# How it was run: as §1
# GalNAc(a1-3)Gal = target: GalNAc(a1-3)Gal
# How it was run: as §1
# GalNAc(a1-3)GalNAc = target: GalNAc(a1-3)GalNAc
# How it was run: as §1
# [9] = target: GalNAc(a1-3)GalNAc(b1-3)Gal(a1-4)Gal(b1-4)Glc
# How it was run: as §1
# [10] = target: GalNAc(a1-3)GalNAc(b1-3)Gal(a1-4)Gal(b1-4)GlcNAc
# How it was run: as §1
# GalNAc(b1-3)Gal = target: GalNAc(b1-3)Gal
# How it was run: as §1
# [11] = target: GalNAc(b1-3)Gal(a1-4)Gal(b1-4)GlcNAc
# How it was run: as §1
# [12] = target: GalNAc(b1-3)Gal(a1-4)Gal(b1-4)GlcNAc(b1-3)Gal(b1-4)Glc
# How it was run: as §1
# [13] = target: GalNAc(b1-3)Gal(a1-6)Gal(b1-4)Glc
# How it was run: as §1
# GalNAc(b1-3)GalNAc = target: GalNAc(b1-3)GalNAc
# How it was run: as §1
# GalNAc(b1-3)GlcNAc = target: GalNAc(b1-3)GlcNAc
# How it was run: as §1
# GalNAc(b1-4)Gal(b1-4)Glc = target: GalNAc(b1-4)Gal(b1-4)Glc
# How it was run: as §1
binder,measurement,setting,value
B1,glycan array binding signal (z-score),[1],-0.545
same,glycan array binding signal (z-score),[2],1.98
same,glycan array binding signal (z-score),[3],-0.095
same,glycan array binding signal (z-score),[4],-0.147
same,glycan array binding signal (z-score),Gal(b1-4)GlcNAc6P,-0.278
same,glycan array binding signal (z-score),Gal(b1-6)Gal,0.242
same,glycan array binding signal (z-score),Gal3S(b1-3)GalNAc,0.809
same,glycan array binding signal (z-score),Gal3S(b1-3)GlcNAc,0.781
same,glycan array binding signal (z-score),[5],-0.344
same,glycan array binding signal (z-score),Gal3S(b1-4)Glc,0.725
same,glycan array binding signal (z-score),Gal3S(b1-4)Glc6S,-0.519
same,glycan array binding signal (z-score),Gal3S(b1-4)GlcNAc,0.355
same,glycan array binding signal (z-score),[6],1.48
same,glycan array binding signal (z-score),[7],1.03
same,glycan array binding signal (z-score),[8],1.08
same,glycan array binding signal (z-score),Gal3S4S(b1-4)GlcNAc,-0.921
same,glycan array binding signal (z-score),Gal3S6S(b1-4)GlcNAc,1.06
same,glycan array binding signal (z-score),Gal3S6S(b1-4)GlcNAc6S,0.638
same,glycan array binding signal (z-score),Gal4S(b1-4)GlcNAc,-0.173
same,glycan array binding signal (z-score),Gal4S6S(b1-4)GlcNAc,-0.636
same,glycan array binding signal (z-score),Gal6P(b1-4)GlcNAc,-0.304
same,glycan array binding signal (z-score),Gal6S(b1-3)GlcNAc,-1.14
same,glycan array binding signal (z-score),Gal6S(b1-3)GlcNAc6S,-0.494
same,glycan array binding signal (z-score),Gal6S(b1-4)Glc,-0.412
same,glycan array binding signal (z-score),Gal6S(b1-4)Glc6S,1.16
same,glycan array binding signal (z-score),Gal6S(b1-4)GlcNAc,-0.37
same,glycan array binding signal (z-score),Gal6S(b1-4)GlcNAc6S,-0.128
same,glycan array binding signal (z-score),GalNAc(a1-3)Gal,-1.08
same,glycan array binding signal (z-score),GalNAc(a1-3)GalNAc,0.121
same,glycan array binding signal (z-score),[9],-1.02
same,glycan array binding signal (z-score),[10],-0.179
same,glycan array binding signal (z-score),GalNAc(b1-3)Gal,-0.147
same,glycan array binding signal (z-score),[11],0.014
same,glycan array binding signal (z-score),[12],0.735
same,glycan array binding signal (z-score),[13],0.146
same,glycan array binding signal (z-score),GalNAc(b1-3)GalNAc,-0.282
same,glycan array binding signal (z-score),GalNAc(b1-3)GlcNAc,-0.383
same,glycan array binding signal (z-score),GalNAc(b1-4)Gal(b1-4)Glc,-0.146

# Reformatted as tab-separated lines: part of the list above
binder	measurement	setting	value
B1	glycan array binding signal (z-score)	Gal6S(b1-4)GlcNAc6S	-0.128
same	glycan array binding signal (z-score)	GalNAc(a1-3)Gal	-1.08
same	glycan array binding signal (z-score)	GalNAc(a1-3)GalNAc	0.121
